From the supplement of paper PMC7411640
Structures can show the parent of a compound that is named as a salt. The list shows a part of the results. Single values are uncertain here, since repeats match poorly.

The molecules below were run on MDA-MB-468 (assay: phospho-S6 immunofluorescence (DAPI-normalised), per-plate z-score; higher = higher phospho-S6 signal (less pathway suppression)). Conditions: compound 0.1 µM; co-treatment: vehicle; 24 h.
Experimental: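 GPCR-targeted compound library (MedChemExpress HY-L006) tested on MDA-MB-468 PTEN-null TNBC cells in 384-well plates at 0.1, 1 or 10 uM, combined with vehicle, GDC0941 450 nM or lapatinib 1 uM, for 24 h. Phospho-S6 (S240/244) immunofluorescence normalised to DAPI and expressed as a per-plate z-score; values are the mean of biological triplicates.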

Row | Compound | phospho-S6 immunofluorescence (z-score)
1 | CC(=O)Nc1cccc2c1c(Sc1ccc(Cl)cc1)c(C)n2CC(=O)O | 0.2
2 | COc1nc(C)nc(Cl)c1NC1=NCCN1 [Moxonidine] | 0.38
3 | CC(COc1ccccc1)N(CCCl)Cc1ccccc1 (centres undefined) [Phenoxybenzamine (hydrochloride)] | 0.28
4 | CC(C)COc1ccc(CNC(=O)N(Cc2ccc(F)cc2)C2CCN(C)CC2)cc1 [Pimavanserin] | -0.03
5 | c1ccc2c(c1)OCC(CN1CCCCC1)O2 (centres undefined) [Piperoxan (hydrochloride)] | 0.86
6 | O=C(O[C@@H]1C[C@@H]2C[C@H]3C[C@H](C1)N2CC3=O)c1c[nH]c2ccccc12 [Dolasetron (Mesylate hydrate)] | -0.26
7 | O=C1NCC2(CCN(CCc3ccccc3)CC2)O1 [Fenspiride (Hydrochloride)] | 1.02
8 | CN(C)CCc1c[nH]c2ccc(C[C@H]3COC(=O)N3)cc12 [Zolmitriptan] | -1.22
9 | Clc1ccc2c(c1)CCc1cccnc1C2=C1CCNCC1 [Desloratadine] | -0.53
10 | COc1cc2c(cc1OC)CN(C(=O)[C@@H](NCc1ccncc1)C(C)(C)C)CC2 | 0.4
11 | CN1CCCC(n2nc(Cc3ccc(Cl)cc3)c3ccccc3c2=O)CC1 (centres undefined) [Azelastine (hydrochloride)] | -0.51
12 | CNC(=C[N+](=O)[O-])NCCSCc1csc(CN(C)C)n1 [Nizatidine] | -0.28
13 | CN(C)CCN1C(=O)c2cccc3cc(NC(N)=O)cc(c23)C1=O | -0.9
14 | CN1CCN(C2=Nc3ccccc3Oc3ccc(Cl)cc32)CC1 [Loxapine (succinate)] | -3.1

Laid out differently: entries from further up
Row	Compound	phospho-S6 immunofluorescence (z-score)
4	CC(C)COc1ccc(CNC(=O)N(Cc2ccc(F)cc2)C2CCN(C)CC2)cc1 [Pimavanserin]	-0.03
5	c1ccc2c(c1)OCC(CN1CCCCC1)O2 (centres undefined) [Piperoxan (hydrochloride)]	0.86
